Results on 42 sequences are retold here after publication PMC7819943, “Rice protein-binding microarrays: a tool to detect cis-acting elements near promoter regions in rice”.

Amino acid sequences for entries named in this document (tags omitted).
UniProt Q0JBA9, entry or part of it: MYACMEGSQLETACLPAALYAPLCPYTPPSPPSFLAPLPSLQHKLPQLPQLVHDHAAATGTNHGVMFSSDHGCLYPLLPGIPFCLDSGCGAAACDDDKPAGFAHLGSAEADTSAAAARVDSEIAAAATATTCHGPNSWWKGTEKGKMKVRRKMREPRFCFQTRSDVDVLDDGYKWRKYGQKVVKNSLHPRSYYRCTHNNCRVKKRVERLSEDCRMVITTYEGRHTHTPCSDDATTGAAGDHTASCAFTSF

This is one part of the list.

The target of this assay is OsWRKY34 (Oryza sativa, UniProt Q0JBA9 1-250). The assay is described as follows: protein-binding microarray (RPBM); PBS, 2% BSA, 51.3 ng/ul salmon testes DNA, 50 uM zinc acetate, 200 nM TF, 25 C, 1 h; high values mean tight binding. As to conditions: protein: recombinant; tags: N-terminal polyhistidine and DsRed monomer fusion (pET32a); label: CyDye5-dUTP incorporated in the synthesized complementary strand; 3' TTTTT single-stranded linker to array surface; dsDNA, one strand shown. A digest of the protocol:
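Binding signal here means per-feature fluorescence intensity in arbitrary units. The values were read on an Axon 4000B scanner after a custom Agilent array, double-stranded by primer extension with Cy5-dUTP, was incubated with 200 nM protein at 25 °C for 1 h in PBS with 2% BSA, salmon testes DNA and 50 µM zinc acetate, then washed. The proteins were transcription factors with an N-terminal polyhistidine tag and DsRed, expressed in E. coli BL21-CodonPlus and purified on Ni–NTA.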
For “AACTAGATTCTATATGTTGGTCTTACTGTTCTAGTTCTAGCGGAGTCACCTAGTGCAG”, the binding signal is 9090 fluorescence intensity (a.u.).
For “AGCGGTTTCTTGGTTGGGGTTTAGTGTCTGCATTGGATATCGGAGTCACCTAGTGCAG”, the binding signal is 18200 fluorescence intensity (a.u.).
The figure for “GACATCGCCGCTCCTCCTATCGCGCTCCTCCCCGCCGGCACGGAGTCACCTAGTGCAG” is 9430 fluorescence intensity (a.u.); for “ATAGGGGATATGTAAGTGTGTTGCTTGTGCTATATATTGCCGGAGTCACCTAGTGCAG” it is 8460 fluorescence intensity (a.u.); for “GCTCCGCATCTCGCTGTTCCTTTCCTGGTTTTTGTGAAGCCGGAGTCACCTAGTGCAG” it is 9940 fluorescence intensity (a.u.).
The figure for “CACGCCCCTTTGGTCCCACCATTTCTTATTACCCTTATATCGGAGTCACCTAGTGCAG” is 8060 fluorescence intensity (a.u.).
With “ACGTTTGGCTTATACTCATTCTTGCAATAATCAATCAACCCGGAGTCACCTAGTGCAG”, the binding signal was 9800 fluorescence intensity (a.u.).
As to “TACAGTCAACTGTGTGTTGATACGTACCGCGCCATCTCTCCGGAGTCACCTAGTGCAG”, the binding signal is 13000 fluorescence intensity (a.u.).
Consider “TCTTTCCCATATCTCTCTCTACCCACGCACTTTTTTCTTTCGGAGTCACCTAGTGCAG”, for which the binding signal was 8830 fluorescence intensity (a.u.).
“CTGCCTACTTGCCACTTGTACGCAAGAATCCATCGTCCCTCGGAGTCACCTAGTGCAG”: the binding signal is 8060 fluorescence intensity (a.u.).
Regarding “CTAAGGTCTAATATGTGCACTGGTTTTCGTTTCGTGTATTCGGAGTCACCTAGTGCAG”, the binding signal is 8620 fluorescence intensity (a.u.).
For “GAGCTCCTGTTGGTCGGGGACGTTTCGCGTTGGTTCCTCTCGGAGTCACCTAGTGCAG”, the binding signal was 12000 fluorescence intensity (a.u.).
For the sequence “GACTCTCCACAACCATCTCATCTCCTTCACCTTCACCTTCCGGAGTCACCTAGTGCAG”, the binding signal is 8800 fluorescence intensity (a.u.).
For the sequence “GTCTCTCACTTTTCTCTCGTAGATCGGCCGACGGGTGGGGCGGAGTCACCTAGTGCAG”, the binding signal is 11100 fluorescence intensity (a.u.).
For “GAACGTGGAGGCTTTTTTTTCTATTCCTTTAATAATATAACGGAGTCACCTAGTGCAG” the value was 8990 fluorescence intensity (a.u.).
Consider “CCCTCCGTTTCAAAATGTTTGACACCGTTGACTTTTTAATCGGAGTCACCTAGTGCAG”, for which the binding signal is 14900 fluorescence intensity (a.u.).
On to “CACCACCGCCACAGTCGCGTCGCCGTCCTACCACTACTGCCGGAGTCACCTAGTGCAG”, for which the binding signal is 8940 fluorescence intensity (a.u.).
For “AACCCGCACGCCTCCGTTTCCGTCTCCCTTCTCCCCACCCCGGAGTCACCTAGTGCAG” the value was 8510 fluorescence intensity (a.u.).
Regarding “CCATTTAATTCTACCTATTTTCTTAATAACCGTGTATAACCGGAGTCACCTAGTGCAG”, the binding signal was 8770 fluorescence intensity (a.u.).
The figure for “ACACCGCTGACTTTTTAAAACATGTTTTACCGTTCGTCTTCGGAGTCACCTAGTGCAG” is 13600 fluorescence intensity (a.u.); for “TGTTACAGCTTCTTATTTCAATTGATATGTTTTTAGATCACGGAGTCACCTAGTGCAG” it is 10000 fluorescence intensity (a.u.).
The figure for “GGCCGCAAACTAAATCAGCCCTATACTATGAGGCAAACAACGGAGTCACCTAGTGCAG” is 12100 fluorescence intensity (a.u.); for “AATATGCCAGCTGATTAATTAATCTTTTTTTTGTTTTGCTCGGAGTCACCTAGTGCAG” it is 9520 fluorescence intensity (a.u.); for “CAACATCTTCTTTAGTTGCTCACACTTTTTCTTAGAATCACGGAGTCACCTAGTGCAG” it is 8340 fluorescence intensity (a.u.).
For “CTCGCGCTTAATTTACTGTTTGTTTTTGTCGATTTATGCACGGAGTCACCTAGTGCAG” the value was 8890 fluorescence intensity (a.u.); for “CTTCTACTAGTAGTATTATAACTGGGTTGTTCATTATTTGCGGAGTCACCTAGTGCAG”, 8930 fluorescence intensity (a.u.); for “TCTTCTCCTAGACCTTCACATCCTTCACACATCTATATAACGGAGTCACCTAGTGCAG”, 9220 fluorescence intensity (a.u.).
Regarding “GAGTAGGCTGGTCTGACCGCCGTGTGTTGGCCGGTCAGACCGGAGTCACCTAGTGCAG”, the binding signal is 10400 fluorescence intensity (a.u.).
For “ATCTCGCGTTTGTACTAAAGGTTATATATCGTTTTATTTTCGGAGTCACCTAGTGCAG”, the binding signal was 10200 fluorescence intensity (a.u.).
Regarding “AGTTGAGGGATGGGTTATACCCGGTTTTGTGGTCAAGGGACGGAGTCACCTAGTGCAG”, the binding signal is 8330 fluorescence intensity (a.u.).
The figure for “GAGCGACTTTTTCCCACGAAACACACCATTTAGCAGTTTGCGGAGTCACCTAGTGCAG” is 8310 fluorescence intensity (a.u.).
For “ATGTCTACTCTTGTGAGATTTTTTTGGTGTTGGAATACTGCGGAGTCACCTAGTGCAG” the value was 8320 fluorescence intensity (a.u.); for “TCCGGGAGTATTATAGCATCTGTACTTCTCACCTCCTAATCGGAGTCACCTAGTGCAG”, 9950 fluorescence intensity (a.u.).
For “GTTGGGTGCGGTTTCCTTCCACGCTTGGGCTCGAACAACTCGGAGTCACCTAGTGCAG” the value was 9050 fluorescence intensity (a.u.); for “CACACCATCCCCGTCCCGGATCCGGCGACCACCGATTCCTCGGAGTCACCTAGTGCAG”, 8850 fluorescence intensity (a.u.); for “GCCCACGGGTGGAGACCTTGGCTAGCTGCTTGGGGTGGGCCGGAGTCACCTAGTGCAG”, 11000 fluorescence intensity (a.u.).
As to “AGTCCAATGACTCCACCCCACCACCGATTGCTTGTCTCCACGGAGTCACCTAGTGCAG”, the binding signal is 10200 fluorescence intensity (a.u.).
The figure for “ACTCTTGTCCTCTCTATTTTTTTTCCCAAATTAGTAGCCTCGGAGTCACCTAGTGCAG” is 8640 fluorescence intensity (a.u.).
For the sequence “TCACAAAAGTATACCCTTTTACACACACTCATTTTTCTTTCGGAGTCACCTAGTGCAG”, the binding signal was 10700 fluorescence intensity (a.u.).
In the case of “ATCACTCCACAAACATTGTTTTTCCACGTTTAACTTCTACCGGAGTCACCTAGTGCAG”, the binding signal was 12800 fluorescence intensity (a.u.).
The figure for “AGATACTGCTGACCAATATAGATACCCTGATGTCCCATCCCGGAGTCACCTAGTGCAG” is 8470 fluorescence intensity (a.u.); for “GTATGTTTTTGTTTCTCTTCCATTTACCATTAAAATATGGCGGAGTCACCTAGTGCAG” it is 8420 fluorescence intensity (a.u.).
